Measurements: PubChem BioAssay AID2551 (National Center for Advancing Translational Sciences (NCATS), 2010)
Where “and” joins values, the source holds several entries; their conditions need not be identical. Equal entries are not always repeated. In all, about 310,000 compounds went through this assay and about 17,000 (5.5%) were called active. Inconclusive results, whose numbers are uncertain, are shown with a selection of clear calls. Calls follow the shape of the dose curve; as a rule, active = well fitted inhibition curve with a large enough effect; inconclusive = small, poorly fitted or top-dose-only effect, or effect the other way; inactive = no such curve, though single readings can be large or run the other way. Potencies beside an inconclusive call are fits to weak or partial responses and may not hold up.
% is scaled to controls: 0 for no effect and ±100 for the full control effect; potency is read from the fitted curve at half-maximal effect.
Also: nearly all actives have a fitted effect of over 60% in size.

Sequences of proteins named here, by UniProt entry; tags and fusion partners are left off. A change or cut given only in a name is not applied to a line headed by its entry.
UniProt P51450: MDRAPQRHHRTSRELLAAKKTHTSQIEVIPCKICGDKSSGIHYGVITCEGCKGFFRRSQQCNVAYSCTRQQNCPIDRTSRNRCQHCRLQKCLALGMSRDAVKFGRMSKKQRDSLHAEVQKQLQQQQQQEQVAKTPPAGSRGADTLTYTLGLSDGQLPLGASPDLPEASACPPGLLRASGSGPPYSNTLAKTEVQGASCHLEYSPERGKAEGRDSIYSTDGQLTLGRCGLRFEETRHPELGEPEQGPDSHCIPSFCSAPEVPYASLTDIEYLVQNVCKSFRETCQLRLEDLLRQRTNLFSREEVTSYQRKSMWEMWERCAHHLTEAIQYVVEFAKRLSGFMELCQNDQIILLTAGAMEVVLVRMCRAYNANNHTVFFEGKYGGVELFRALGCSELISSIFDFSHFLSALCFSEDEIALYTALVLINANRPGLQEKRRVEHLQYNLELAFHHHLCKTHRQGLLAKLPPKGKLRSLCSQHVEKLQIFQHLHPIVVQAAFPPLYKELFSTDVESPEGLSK

These molecules were tested against Nuclear receptor ROR-gamma (Mus musculus) (UniProt P51450) (assay: qHTS for inhibitors of ROR gamma transcriptional activity). Conditions: Drosophila S2 Gal4-RORgamma UAS-luciferase reporter, 20 h; activity change, negative = inhibition: at 53.6 µM (top of the series).
Procedure, shortened: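 Luciferase reporter read in Schneider cells carrying Gal4-RORγ (mouse) and UAS-Photinus luciferase; cells given compound 1 h before 700 uM copper sulfate induction, then incubated 20 h at ambient temperature.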
For `COC(=O)c1cc(=O)n(Cc2ccc(F)cc2)c(=Nc2ccccc2)s1`, the Potency was inconclusive: 35.5 µM [inhibitor, single point].
`N#Cc1cc2c(=O)n3ccccc3nc2n(CCCN2CCOCC2)c1=O` was tested, and the Potency was inconclusive: 0.891 µM [inhibitor, full curve, poor fit].
With `Cc1cc(C(=O)CN2C(=O)c3ccccc3S2(=O)=O)c(C)n1CC1CCCO1` (configuration not stated) the Potency was active: 2.24 µM.
`O=C(NC(NC(=S)Nc1ccc(Cl)cc1)C(Cl)(Cl)Cl)c1ccco1` (configuration not stated) was tested, and the Potency was inconclusive: 31.6 µM [activator, single point].
For `COc1ccc(N2CCN(CC(=O)Nc3ccc(-n4cnnn4)cc3)CC2)cc1`, the Potency was inconclusive: 11.2 µM [inhibitor, partial curve, poor fit].
`CC1CCc2cc(F)ccc2N1C(=O)CCl` (configuration not stated) was tested, and the Potency was inconclusive: 2.82 µM [inhibitor, single point].
For `CC(C)(C)C(=O)Nc1ccc(Sc2ccc([N+](=O)[O-])cc2)cc1`, the Potency was inconclusive: 22.4 µM [activator, partial curve, poor fit].
In the case of `O=C(CCCCCN1C(=O)[C@@H]2Cc3ccccc3CN2C1=O)NCCc1ccccc1`, the “activity change, negative = inhibition” value is reported as inactive: 14.6%.
With `COC(c1ccccc1)c1nnc(CCC(=O)N(C)CCCC2CCCC2)o1` (configuration not stated) the Potency was inconclusive: 28.2 µM [activator, partial curve].
`CCOc1ccc(CCNC(=O)C(C)n2nc(C)c3c(C)n(-c4ccccc4)nc3c2=O)cc1` (configuration not stated) was tested, and the Potency was inconclusive: 0.708 µM [activator, single point].
In the case of `CCOC(=O)C1CCCN(Cc2nc(N)nc(Nc3ccc(C)cc3)n2)C1` (configuration not stated), the Potency is reported as inconclusive: 14.1 µM [inhibitor, partial curve, poor fit].
With `NC(=O)CSC1=N/C(=C\c2ccco2)C(=O)N1c1ccc(OC(F)F)cc1` the Potency was inconclusive: 5.62 µM [activator, partial curve].
For `COc1ccc(-n2c(Cc3cccn3C)nnc2SCC(=O)Nc2ccccc2)cc1`, the Potency was inconclusive: 5.01 µM [activator, partial curve].
For `FC(F)(F)c1ccccc1NC(=S)N1CCN(c2ncccn2)CC1`, the Potency was active: 12.6 µM.
With `O=C(Nc1cccc2c1[nH]c1ccccc12)C(F)(F)F` the Potency was inconclusive: 3.16 µM [activator, single point].
For `C/C(CC(=O)Nc1ccc2c(c1)OCCO2)=N\NC(=O)c1ccccn1`, the Potency was inconclusive: 0.355 µM [activator, partial curve, poor fit].
For `Cc1ccc(-n2c(C)cc(C(=O)COC(=O)c3c(C)noc3C)c2C)cc1`, the Potency was inconclusive: 35.5 µM [inhibitor, single point].
For `Cc1nn(-c2ccccc2)c2sc(C(=O)N3CCc4ccccc4C3)cc12`, the Potency was inconclusive: 28.2 µM [inhibitor, single point].
For `C=CCNC(=S)N1CCN(c2ccccc2Cl)CC1`, the “activity change, negative = inhibition” value was inactive: -23.6%.
In the case of `CCOC(=O)c1ccc2[nH]c3c(c2c1)CCCC3`, the Potency is reported as inconclusive: 15.8 µM [activator, partial curve, poor fit].
In the case of `COc1cc2c(cc1NC(=O)COC(=O)[C@@H](NC(=O)c1ccccc1F)C(C)C)oc1ccccc12`, the Potency is reported as active: 10 µM.
For `O=C1CSC(=S)N1/N=C/c1cc(Br)ccc1O`, the Potency was active: 11.2 µM.
For `CSc1ncc(Cl)c(C(=O)Nc2nnc(SC)s2)n1`, the “activity change, negative = inhibition” value was inactive: 0.0827%.
For `O=C(NNC(=S)NC(=O)c1ccc(F)cc1)c1cccnc1`, the Potency was inconclusive: 15.8 µM [inhibitor, single point].
In the case of `CC(=O)N/C(=C/c1ccc(Cl)cc1)C(=O)NCCc1c[nH]c2ccccc12`, the Potency is reported as inconclusive: 14.1 µM [activator, single point].
With `CC(C)OCCCNC(=S)NNC(=O)C(c1ccccc1)c1ccccc1` the Potency was inconclusive: 6.31 µM [inhibitor, single point].
In the case of `O=S(=O)(/N=C(/NC(=S)Nc1ccccc1)c1ccccc1)c1ccc(Cl)cc1`, the Potency is reported as inconclusive: 15.8 µM [inhibitor, single point].
For `CN(C)c1ccc(-c2cncnc2NCc2ccccc2)cc1`, the Potency was inconclusive: 14.1 µM [inhibitor, partial curve].
For `COc1ccc(C2OC(=O)Cc3cc(OC)c(OC)cc32)cc1` (configuration not stated), the “activity change, negative = inhibition” value was inactive: -24.6%.
`NNC(=O)c1ccc(COc2ccc3c(c2)CCC3)o1` was tested, and the Potency was inconclusive: 35.5 µM [inhibitor, single point].
For `COc1ccccc1N1CCN(Cc2ccc(OC)c3ccccc23)CC1`, the Potency was inconclusive: 0.0045 µM [inhibitor, full curve, poor fit].
With `Cc1cc(C(=O)c2cccs2)c(N)s1` the activity change, negative = inhibition was inactive: -17% [at 10 µM].
`CN(Cc1ccccc1)c1ccc2nnc(-c3ccccc3)n2n1` was tested, and the Potency was inconclusive: 35.5 µM [activator, single point].
`Cc1ccc(-c2cccc(C3CC=CC4C3C(=O)N(Cc3ccccc3)C4c3cc(C)ccc3F)c2)cc1` (configuration not stated) was tested, and the Potency was “inactive and inconclusive: 2.82 µM [activator, single point]”.
`C/C(CC(=O)Nc1cc(Cl)ccc1Cl)=N\NC(=O)c1ccccc1Br` was tested, and the Potency was inconclusive: 22.4 µM [inhibitor, single point].
In the case of `Cc1ccc(C(=O)COc2ccccc2-c2ccccc2)cc1`, the Potency is reported as inconclusive: 11.2 µM [activator, partial curve].
For `CCOc1ccccc1N(CC(=O)Nc1cccc(OC)c1)S(=O)(=O)c1ccccc1`, the “activity change, negative = inhibition” value was inactive: -7.2%.
For `Oc1ccc2ccccc2c1CN1CCN(C/C=C/c2ccccc2)CC1`, the Potency was inconclusive: 35.5 µM [inhibitor, single point].
For `CC(C)CCNC(=O)C(C)N(C(=O)c1snc(C(N)=O)c1N)c1cnc2ccccc2c1` (configuration not stated), the Potency was inconclusive: 10 µM [activator, single point].
With `O=C(CCc1ccccc1)Nc1nnc(-c2ccc3c(c2)CCCC3)o1` the Potency was active: 14.1 µM.
`CCCNC(=O)CSc1nnc(-c2ccccc2Br)n1-c1cccc(C(F)(F)F)c1` was tested, and the Potency was inconclusive: 3.16 µM [activator, single point].
`CCCOC(=O)c1ccc(-c2ccc(C=O)o2)cc1` was tested, and the Potency was inconclusive: 35.5 µM [inhibitor, single point].
